{"sequences": {"note": "Sequences of proteins named here, by UniProt entry; tags and fusion partners are left off. Residues count along the entry.", "UniProt P51688, 21-502 limits assumed": "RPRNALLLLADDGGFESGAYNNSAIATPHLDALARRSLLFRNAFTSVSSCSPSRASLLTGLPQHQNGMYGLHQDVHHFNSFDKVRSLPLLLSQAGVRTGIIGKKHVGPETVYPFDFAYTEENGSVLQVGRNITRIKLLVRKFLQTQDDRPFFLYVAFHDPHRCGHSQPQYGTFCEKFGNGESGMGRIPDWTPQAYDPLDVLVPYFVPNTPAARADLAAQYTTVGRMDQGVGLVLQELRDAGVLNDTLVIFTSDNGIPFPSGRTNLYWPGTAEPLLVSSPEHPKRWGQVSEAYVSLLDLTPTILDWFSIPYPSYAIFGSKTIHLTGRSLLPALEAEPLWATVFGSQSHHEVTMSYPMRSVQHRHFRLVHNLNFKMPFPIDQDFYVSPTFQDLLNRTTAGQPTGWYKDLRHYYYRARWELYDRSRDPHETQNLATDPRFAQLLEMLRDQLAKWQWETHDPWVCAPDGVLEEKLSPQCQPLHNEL"}, "source": "patent US20100197018A1", "about": "“USE OF SUBSTRATES AS PHARMACOLOGICAL CHAPERONES” (AMICUS THERAPEUTICS, INC., priority 2007, published 2010)", "origin": "cited, not measured here", "target": "heparan-N-sulfatase (Homo sapiens, UniProt P51688)", "settings": "purified enzyme", "note": "Not every entry of the source has a single result; some have several. Only these are listed. There may be further records. The values listed for one entry differ, and nothing given here explains why; they may come from other doses, times, organisms or constructs than stated."}
{"smiles": "O=C(O)[C@H](O)[C@@H](O[C@H]1O[C@H](COS(=O)(=O)O)[C@@H](O)[C@H](O)[C@H]1NS(=O)(=O)O)[C@H](O)[C@@H](O)CO", "note": "[GlcNS6S-IdOA, O-(α-2-sulphaminoglucosamine 6 sulphate)-(1-3)-L-idonic acid]", "values": [{"measurement": "pH optimum of the enzyme for the substrate", "result": "acidic optimum pHs and 4.2"}]}
